The assay is described as follows: qHTS Assay for Lipid Storage Modulators in Drosophila S3 Cells.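 As to cell number change: cells counted by Cell Tracker Red CMTPX staining in the red channel.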 The following applies: BODIPY lipid droplet fluorescence, 18-24 h; for cell number change: measured here: cell count max response, cells fed with added oleic acid. The essentials:
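Drosophila S3 cells got compounds at several concentrations plus oleic acid (400 uM solution). Laser-scanning cytometry with 488 nm excitation read lipid droplets at 500-530 nm and cells at 575-640 nm. Percent activity was relative to 20 uM Triacsin C.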

Setting [1] is: measured here: lipid fluorescence (Fed channel) AC50, cells fed with added oleic acid.
[2] abbreviates: measured here: cell number channel AC50, cells fed with added oleic acid.

The other results are listed elsewhere or left out. Shown are side measurements of this screen, not its main read-out; they come without a call. Most of these compounds were active or inconclusive in the main read-out, so they are no random draw. Words in brackets tell the shape of the fitted curve; partial curves, single points and poor fits give uncertain potencies.

What is called AC50 is the concentration at which the activity in the assay is half-maximal.

Take `CCCn1c(SCC(=O)NCC)nc2sc3c(c2c1=O)CCC3`: the cell number change came out at 15.3%. For the same compound, the AC50 under setting [1] is 3.26 µM [rising, single point].

As to `C=CCCC1(C)C(=O)N(c2ccccc2)c2ccccc21` (stereo unspecified), the cell number change is 37.7%. The AC50 under setting [2] was 29.1 µM [rising, single point]. Further, under setting [1], the AC50 is 29.1 µM [rising, single point].

As for `CC(C)(C)OC(=O)NC1CCN(S(=O)(=O)c2ccc3c(c2)OCCO3)CC1`, the cell number change is -16.1%.

As to `CCOC(=O)/C(C#N)=C\c1ccc(N2CCN(C)CC2)cc1`, the cell number change is -29.1%. The AC50 under setting [2] was 3.66 µM [falling, full curve, poor fit]. The AC50 under setting [1] is 29.1 µM [falling, single point].

`O=C(Nc1nnc(SCc2ccc(F)cc2)s1)c1cnccn1`: the cell number change is 94.2%. Also, under setting [2], the AC50 is 20.6 µM [rising, partial curve]. Moreover, the half-maximal activity concentration (AC50) under setting [1] is 20.6 µM [rising, partial curve].

For the compound `O=C(Nc1nccs1)c1ccc(S(=O)(=O)NCc2cccs2)cc1`, the cell number change was -33.9%. Also, the AC50 under setting [2] was 18.4 µM [falling, single point]. Under setting [1], the AC50 is 4.11 µM [rising, single point].

In the case of `CCc1n[nH]c2c1/C(=N\O)CC(C)(C)C2`, the cell number change was 0.407%.

For the compound `C/C(=N\OC(=O)c1cccc(C(F)(F)F)c1)c1sc(-c2ccccc2)nc1C`, the cell number change was -62.3%. In addition, the AC50 under setting [2] is 25.9 µM [falling, single point].

`Cc1ccc(S(=O)(=O)N2CCC(C(=O)Nc3ccccc3N3CCCCC3)CC2)cc1`: the cell number change was -12.5%. In addition, under setting [1], the AC50 was 2.31 µM [rising, partial curve, poor fit].

Turning to `Cc1nc(NCCc2ccccc2)c2nnn(Cc3ccccc3Cl)c2n1`, the cell number change was -28.3%. For the same compound, the AC50 under setting [1] was 6.51 µM [rising, single point].

As to `CCCCN(C)Cc1c(C(=O)N2CCc3ccccc3C2)nc2ccc(Cl)cn12`, the cell number change was determined as 12.4%. Also, the AC50 under setting [2] is 2.59 µM [rising, partial curve, poor fit]. Further, under setting [1], the AC50 is 0.13 µM [rising, full curve, poor fit].

Take `CCN1CC2([N+](=O)[O-])C=CC(=O)C([N+](=O)[O-])(C1)C2CC(=O)c1ccccc1` (stereo unspecified): the cell number change was determined as 18.7%. The AC50 under setting [1] was 29.1 µM [rising, single point].

As for `COc1ccc(/C=C2\NC(=O)C(C=NCc3ccccc3)=C2O)cc1`, the cell number change is -42.1%. Further, under setting [2], the AC50 was 29.1 µM [falling, single point]. The AC50 under setting [1] was 29.1 µM [falling, single point].

In the case of `CCc1c(C)sc(NC(=O)c2cccs2)c1C(=O)OC(C)C`, the cell number change was -9.2%. Under setting [1], the half-maximal activity concentration (AC50) is 0.92 µM [rising, full curve, poor fit].

`O=C(CN1C(=O)S/C(=C\c2cccs2)C1=O)Nc1ccc(O)c(C(=O)O)c1`: the cell number change is -11.3%. Moreover, the AC50 under setting [1] is 29.1 µM [rising, single point].

As for `O=C(Oc1ccccc1)c1ccc2c(c1)C(=O)N(Cc1ccncc1)C2=O`, the cell number change was -32.5%. Further, the AC50 under setting [2] was 3.26 µM [falling, full curve, poor fit]. Further, the AC50 under setting [1] was 5.8 µM [falling, partial curve].

For the compound `O=C(O)c1ccccc1C(=O)N1N=C(c2ccccc2)CC1c1ccccc1O` (stereo unspecified), the cell number change was determined as 9.52%. Further, under setting [1], the AC50 was 9.2 µM [rising, partial curve].

Consider `CCS(=O)(=O)c1ccc2oc(Nc3ccccc3Cl)nc2c1`, for which the cell number change is 26.9%.

Consider `COc1cc(/C=C(\C#N)c2nc3ccccc3s2)ccc1OCC(=O)Nc1ccccc1`, for which the cell number change was 6.1%. For the same compound, under setting [1], the concentration at half-maximal activity (AC50) was 0.731 µM [rising, full curve, poor fit].

In the case of `COc1ccccc1OCCCCN1CCN(C(c2ccccc2)c2ccccc2)CC1`, the cell number change is -36.1%. In addition, the AC50 under setting [2] was 29.1 µM [falling, single point]. The AC50 under setting [1] was 29.1 µM [falling, single point].

Turning to `O=C(Nc1nccs1)c1ccc(Br)s1`, under setting [1], the AC50 is 0.651 µM [falling, partial curve, poor fit].

As to `CC(C(=O)Nc1ccccc1-c1ccccc1)N1CCCCC1` (stereo unspecified), the cell number change was found to be 77.4%. Further, the AC50 under setting [2] is 23.1 µM [rising, partial curve, poor fit]. The half-maximal activity concentration (AC50) under setting [1] was 0.82 µM [rising, full curve].

On to `O=[N+]([O-])c1cccc(NC(=S)N2CCN(S(=O)(=O)c3ccccc3)CC2)c1`, for which the cell number change is 0.867%. Moreover, under setting [1], the AC50 is 29.1 µM [falling, single point].

Take `COCc1[nH]nc2c1C(c1ccc(OC)cc1)C(C#N)=C(N)O2` (stereo unspecified): the cell number change stood at 71.1%. In addition, under setting [2], the AC50 is 29.1 µM [rising, single point]. For the same compound, the AC50 under setting [1] is 0.58 µM [falling, single point].

As for `COc1ccc2c(c1)C(C)=CC(C)(C)N2C(=O)CSc1nnc(-c2ccc(C)cc2)o1`, the AC50 under setting [2] was 2.91 µM [rising, partial curve] and the AC50 under setting [1] was 2.91 µM [rising, partial curve].

On to `O=C(CCCCn1c(=O)[nH]c2ccccc2c1=O)N1CCN(c2cccc(C(F)(F)F)c2)CC1`, for which the cell number change is -22.2%. Moreover, the AC50 under setting [1] was 14.6 µM [falling, partial curve].

Regarding `O=C(O)CC/C(=N\Nc1ccc(S(=O)(=O)N2CCOCC2)cc1[N+](=O)[O-])c1cccs1`, the cell number change worked out at 15.4%. Under setting [1], the AC50 was 10.3 µM [rising, partial curve, poor fit].

For `O=C(CCCC(=O)NCC1CCCO1)NCC1CCCO1` (stereo unspecified), the cell number change was -1.16%.

Turning to `CCOc1ccc(C(=O)NCC(=O)OC2CCOC2=O)cc1OCC` (stereo unspecified), the cell number change was -17.3%. Besides, the concentration at half-maximal activity (AC50) under setting [1] is 29.1 µM [falling, single point].

With `CNC(=O)CC12CC3CC(CC(C3)C1)C2`, the cell number change is -26.7%. Besides, the AC50 under setting [2] was 3.66 µM [falling, full curve, poor fit]. Further, the AC50 under setting [1] is 0.731 µM [falling, full curve].

Turning to `CNC(=O)/C(C#N)=C/c1ccc(OCCOc2ccccc2)cc1`, the cell number change is 7.02%. The AC50 under setting [1] is 29.1 µM [falling, partial curve, poor fit].

Take `COc1ccccc1N1CCN(C(=S)Nc2ccc(F)cc2)CC1`: the AC50 under setting [1] is 29.1 µM [rising, single point].

In the case of `COc1ccccc1NC(=O)CN1CCN(CC(=O)Nc2ccc(F)cc2F)CC1`, the cell number change was 13.9%. In addition, the AC50 under setting [1] is 6.51 µM [falling, partial curve, poor fit].

For the compound `COc1cc(C2CC(=O)N3CN(Cc4ccco4)CSC3=C2C#N)ccc1OCc1ccccc1` (stereo unspecified), the cell number change turned out to be 0.759%. Further, under setting [1], the AC50 was 0.651 µM [falling, single point].

Consider `O=C(Cc1cccs1)N1CCCC(c2nc3c(nnn3Cc3ccccc3Cl)c(=O)[nH]2)C1` (stereo unspecified), for which the cell number change is -72.8%. The AC50 under setting [2] was 4.61 µM [falling, full curve]. Further, the AC50 under setting [1] was 13 µM [falling, partial curve].

The record behind these values is PubChem BioAssay AID2685 (National Center for Advancing Translational Sciences (NCATS), 2010).
